{"source": "PubChem BioAssay AID504467", "about": "(National Center for Advancing Translational Sciences (NCATS), 2011)", "note": "About 7,700 (2.3%) of roughly 330,000 compounds were called active. Inconclusive results, whose numbers are uncertain, are shown with a selection of clear calls. Calls follow the shape of the dose curve; as a rule, active = well fitted inhibition curve with a large enough effect; inconclusive = small, poorly fitted or top-dose-only effect, or effect the other way; inactive = flat fitted curve, though single readings scatter. Potencies of inconclusive entries are doubtful fits and often do not repeat. % is scaled to controls: 0 for no effect and ±100 for the full control effect; potency is read from the fitted curve at half-maximal effect.", "data": [{"test": "qHTS screen for small molecules that inhibit ELG1-dependent DNA repair in human embryonic kidney (HEK293T) cells expressing luciferase-tagged ELG1; also: nearly all actives have a fitted effect of over 55% in size", "settings": "HEK293T ELG1-luciferase reporter, luminescence, 16 h, DNA damage induced by 5-fluorouridine; activity change, negative = inhibition: at 46.1 µM (top of the series)", "outline": "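HEK293T cells expressing luciferase-tagged ELG1 (2,000/well) received 5-Fluorouridine plus compound or DMSO for 16 hr at 37 °C. Luciferase was read by ONE-Glo luminescence after 30 min at room temperature.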", "values": [{"smiles": "COC1CCCN(C(=O)c2ccc3nc(Cc4cccc(Cl)c4)oc3c2)C1", "note": "(stereo not given)", "activity change, negative = inhibition": "inactive: -2.46%"}, {"smiles": "COc1ccccc1NC(=O)CSc1nnc(CC(=O)Nc2ccccc2F)n1C", "Potency": "inconclusive: 14.6 µM [activator, partial curve]"}, {"smiles": "C=CCNC(=O)c1ccccc1NC(=O)c1ccc(Cl)c(S(=O)(=O)Nc2ccccc2)c1", "Potency": "inconclusive: 35.5 µM [inhibitor, single point]"}, {"smiles": "Cc1ccc2c(c1)c1c(n2CC2COC(C)(C)O2)C(=O)CCC1", "note": "(stereo not given)", "Potency": "inconclusive: 29.1 µM [inhibitor, single point]"}, {"smiles": "O=C(Nc1ccc(C(=O)N2CCOCC2)cc1)c1ccccc1[N+](=O)[O-]", "Potency": "inconclusive: 18.3 µM [activator, partial curve, poor fit]"}, {"smiles": "Cc1ccc(S(=O)(=O)CCC(=O)OCc2nnc(-c3ccccc3)o2)cc1", "activity change, negative = inhibition": "inactive: 20.6%"}, {"smiles": "COc1ccc(Cl)cc1NC(=S)NCCN1CCOCC1", "activity change, negative = inhibition": "inactive: -9.38%"}, {"smiles": "COc1ccc(N(CCCN2C(=O)c3cccc4cccc(c34)C2=O)C(=O)c2cccc(OC)c2)cc1", "Potency": "active: 18.4 µM"}, {"smiles": "O=C(NNC(=O)c1cc(Br)c(Br)s1)c1ccncc1", "activity change, negative = inhibition": "inactive: 4.24%"}, {"smiles": "CC(=O)OC[C@H]1O[C@@H](Sc2cccc3cccnc23)[C@H](OC(C)=O)[C@@H](OC(C)=O)[C@H]1OC(C)=O", "activity change, negative = inhibition": "inactive: -4.25%"}, {"smiles": "COc1ccc(/C=N/N=C2/NC(=O)CC(C(=O)O)S2)cc1", "note": "(stereo not given)", "activity change, negative = inhibition": "inconclusive: 19.9% [activator]"}, {"smiles": "CSc1cccc(NC(=O)c2cccc3cccnc23)c1", "Potency": "inconclusive: 20.6 µM [activator, partial curve]"}, {"smiles": "Brc1ccc(N/N=C(/N=Nc2nn[nH]n2)c2ccccc2)cc1", "Potency": "inconclusive: 2.31 µM [inhibitor, partial curve]"}, {"smiles": "O=C(CNC(=O)c1n[nH]c2ccccc12)Nc1ccc(F)c(F)c1F", "Potency": "inconclusive: 29.1 µM [activator, single point]"}, {"smiles": "Cc1ccc(-c2nnc(CCC(=O)NCC3C4CC5CC(C4)CC3C5)o2)s1", "note": "(stereo not given)", "Potency": "inconclusive: 13 µM [activator, partial curve]"}, {"smiles": "CCC(C)N(C(=O)CSc1nnc(-c2ccco2)n1C)C1CCS(=O)(=O)C1", "note": "(stereo not given)", "activity change, negative = inhibition": "inactive: -9.99%"}, {"smiles": "Cc1ccccc1-c1cc(-c2ccccc2O)on1", "Potency": "inconclusive: 2.91 µM [activator, full curve]"}, {"smiles": "O=C(NC(=S)Nc1cccc(Cl)c1Cl)C1CC1", "Potency": "inconclusive: 13 µM [activator, partial curve]"}, {"smiles": "Cc1ccc(-c2n[nH]c(=S)n2/N=C/c2cccn2C)cc1", "activity change, negative = inhibition": "inactive: 20.8%"}, {"smiles": "CCOC(=O)c1c(NC(=O)C2=C(C)NC(=S)NC2c2ccc(C)cc2)sc(C)c1C", "note": "(stereo not given)", "Potency": "inconclusive: 2.06 µM [inhibitor, full curve]"}, {"smiles": "Cc1nnc(SCc2nc3ccccc3[nH]2)s1", "Potency": "inconclusive: 29.1 µM [activator, single point]"}, {"smiles": "CCOC(=O)c1c(-c2ccccc2)csc1NC(=O)CSc1nncs1", "Potency": "inconclusive: 25.9 µM [inhibitor, partial curve, poor fit]"}, {"smiles": "COc1ccc(OCC(=O)NC(=S)NNC(=O)COc2ccc(Br)cc2Cl)cc1", "activity change, negative = inhibition": "inactive: 0%"}, {"smiles": "Cc1ccc2[nH]c(=O)c3cc(C(=O)N4CCN(C(=O)c5ccco5)CC4)sc3c2c1", "Potency": "active: 16.4 µM"}, {"smiles": "Cc1cc(C(=O)COC(=O)/C=C/c2ccco2)c(C)n1C", "Potency": "inconclusive: 23.1 µM [activator, partial curve]"}, {"smiles": "C(=N\\NC1=Nc2cccc3cccc1c23)/c1ccccn1", "Potency": "inconclusive: 1.64 µM [activator, partial curve]"}, {"smiles": "CCC(=O)Nc1cccc(NC(=S)NC(=O)c2ccc(Cl)cc2)c1", "Potency": "inconclusive: 3.26 µM [activator, single point]"}, {"smiles": "COc1ccc(NS(=O)(=O)c2ccc(-c3coc(C)n3)cc2)cc1", "Potency": "inconclusive: 13 µM [inhibitor, partial curve]"}, {"smiles": "O=C(Nc1ccc(N2CCCCC2)cc1)c1ccccn1", "Potency": "inconclusive: 0.058 µM [activator, full curve, poor fit]"}, {"smiles": "Cc1ccc2nc(SCC3CCCCO3)[nH]c2c1", "note": "(stereo not given)", "Potency": "inconclusive: 1.46 µM [activator, partial curve]"}, {"smiles": "COc1ccc(-c2cc(C(=O)NCc3cn(C)nc3C)c3ccccc3n2)cc1OC", "Potency": "inconclusive: 18.4 µM [inhibitor, single point]"}, {"smiles": "Cc1nc(N2CCC(C(N)=O)CC2)c2nnn(Cc3ccccc3)c2n1", "Potency": "inconclusive: 32.6 µM [inhibitor, single point]"}, {"smiles": "CCOC(=O)C1=C(C(F)(F)F)Nc2ncnn2C1c1ccc(OC)c(OC)c1OC", "note": "(stereo not given)", "Potency": "inconclusive: 29.1 µM [activator, partial curve, poor fit]"}, {"smiles": "Cc1nnc(-c2ccc(N3CCOCC3)c([N+](=O)[O-])c2)o1", "Potency": "inconclusive: 18.3 µM [activator, single point]"}, {"smiles": "Cc1cccc(CS(=O)(=O)c2ncc(Cl)c(C(=O)Nc3nnc(C(C)C)s3)n2)c1", "Potency": "inconclusive: 29.1 µM [inhibitor, single point]"}, {"smiles": "CCc1cc(SC#N)cc(CC)c1NC(=O)CCl", "Potency": "inconclusive: 16.4 µM [activator, single point]"}, {"smiles": "C/C(=N/NC(=O)c1cc(C)[nH]n1)c1ccncc1", "Potency": "inconclusive: 18.3 µM [activator, single point]"}, {"smiles": "COc1ccc(NS(=O)(=O)c2ccc3nc(COc4cccc5ccccc45)[nH]c3c2)cc1", "Potency": "active: 23.1 µM"}, {"smiles": "CCN(CC(=O)Nc1cc(Cl)ccc1OC)CC(=O)NC1CCS(=O)(=O)C1", "note": "(stereo not given)", "activity change, negative = inhibition": "inactive: 2.86%"}, {"smiles": "CNC(=S)N/N=C/c1cc(Br)cc(Br)c1O", "Potency": "inconclusive: 16.4 µM [inhibitor, single point]"}, {"smiles": "CCOc1ccc(NC(=O)Nc2cc(C)ccc2OC)cc1", "Potency": "inconclusive: 13 µM [activator, partial curve]"}, {"smiles": "Cc1nc(-c2cccc(S(=O)(=O)N3CC(C)CC(C)C3)c2)cs1", "note": "(stereo not given)", "Potency": "inconclusive: 29.1 µM [inhibitor, single point]"}, {"smiles": "Cc1noc(C)c1NC(=O)N(C)C[C@H]1Oc2c(NC(=O)NC(C)C)cccc2C(=O)N([C@H](C)CO)C[C@@H]1C", "Potency": "inconclusive: 10.3 µM [activator, partial curve, poor fit]"}, {"smiles": "CCCC(=O)Nc1cc(-c2nn(C)c(=O)c3ccccc23)ccc1N1CCOCC1", "Potency": "inconclusive: 20.6 µM [activator, single point]"}, {"smiles": "O=C(Nc1cccc(S(=O)(=O)N2CCCC2)c1)c1ccc2c(c1)OCO2", "Potency": "inconclusive: 9.2 µM [inhibitor, partial curve, poor fit]"}, {"smiles": "O=C(CS(=O)(=O)Cc1ccccc1)NCc1ccco1", "activity change, negative = inhibition": "inactive: 0.876%"}, {"smiles": "CN(c1ccccc1)S(=O)(=O)c1ccc(Cl)c(C(=O)Nc2ccncc2)c1", "Potency": "inconclusive: 9.2 µM [inhibitor, partial curve]"}, {"smiles": "CCOC(=O)[C@@H]1[C@H]2COc3cc(OC)ccc3[C@H]2N2C(=O)N(c3ccc(F)cc3)C(=O)[C@]12C", "Potency": "inconclusive: 1.83 µM [inhibitor, partial curve, poor fit]"}, {"smiles": "COc1ccc(C(=O)N/N=C(/C)c2cccc(NC(=O)C(F)(F)F)c2)cc1", "Potency": "inconclusive: 8.2 µM [activator, partial curve]"}, {"smiles": "O=C(Nc1ccc2ncccc2c1)c1cc(Cl)ccc1Cl", "Potency": "inconclusive: 20.6 µM [inhibitor, single point]"}, {"smiles": "CCOc1ccccc1CN(Cc1ccco1)S(=O)(=O)c1ccc(-n2cnnn2)c(OC)c1", "Potency": "inconclusive: 5.8 µM [inhibitor, full curve, poor fit]"}, {"smiles": "Cc1ccc(CS(=O)(=O)Cc2ccc(C(=O)NCc3cccnc3)o2)cc1", "Potency": "inconclusive: 29.1 µM [inhibitor, single point]"}, {"smiles": "COc1cc(C(C)=O)ccc1OCC(=O)Nc1ccc(Cl)c(S(=O)(=O)N2CCOCC2)c1", "Potency": "inconclusive: 14.6 µM [inhibitor, partial curve, poor fit]"}, {"smiles": "Cc1ccccc1C(=O)N1CCN(c2ccc(NC(=O)c3ccco3)cc2Cl)CC1", "Potency": "active: 2.06 µM"}, {"smiles": "COc1cc(C2c3c(oc4ccccc4c3=O)C(=O)N2Cc2ccncc2)ccc1O", "note": "(stereo not given)", "Potency": "inconclusive: 0.0731 µM [activator, full curve, poor fit]"}, {"smiles": "CC(=O)N/N=C/c1cc(C(C)(C)C)cc(/C=N/NC(C)=O)c1O", "Potency": "active: 14.6 µM"}, {"smiles": "Cn1c(=O)c2c(nc(Br)n2C/C=N/NC(N)=S)n(C)c1=O", "activity change, negative = inhibition": "inactive: -7.15%"}, {"smiles": "CC(C)N(C(=O)[C@H]1C[C@H](CC(=O)NCCc2ccccn2)C(=O)N2CCc3c([nH]c4cc(-c5ccco5)ccc34)[C@]12C)C(C)C", "Potency": "inconclusive: 23.1 µM [inhibitor, single point]"}, {"smiles": "Cc1ccccc1CSCCNC(=O)CCSc1ccccc1", "Potency": "inconclusive: 35.5 µM [activator, single point]"}, {"smiles": "N#Cc1ccc(C(=O)Nc2nc3ccccc3[nH]2)cc1", "Potency": "inconclusive: 2.91 µM [activator, full curve]"}, {"smiles": "CCC(=O)Nc1ccc2c(c1)C(=O)c1ccccc1C2=O", "Potency": "inconclusive: 2.31 µM [activator, partial curve]"}, {"smiles": "C/C(=N\\NC(=S)NC(C)C)c1cccc([N+](=O)[O-])c1", "activity change, negative = inhibition": "inactive: -10.4%"}, {"smiles": "CCCc1nc(Cl)c(C#N)c2c1CCCC2", "Potency": "inconclusive: 9.2 µM [inhibitor, partial curve, poor fit]"}, {"smiles": "COc1ccc(C(=O)CN2C(=O)NC3(CCCCCC3)C2=O)c(OC)c1", "Potency": "inconclusive: 25.9 µM [activator, single point]"}, {"smiles": "C=C1C(=O)O[C@@H]2[C@H]1[C@@H](OC(=O)/C(C)=C/C)C/C(C)=C\\C(=O)/C=C(\\C)[C@@H]2O", "Potency": "inconclusive: 29.1 µM [inhibitor, single point]"}]}]}
